Experimental data: PubChem BioAssay AID1224827 (NIAID, 2016)

Assay: 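Identify regulators of the macrophage TNF-alpha response to bacterial LPS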 (follow-up of hits)
Cell system: RAW264.7 G9 mouse macrophage reporter clone
Reagents: single siRNA against mouse genes, 100 nM siRNA
Time to read-out: siRNA for 2 days, then LPS about 16 h
Treatment: bacterial lipopolysaccharide (LPS), 10 ng/ml, cells fixed after overnight (about 16 h) stimulation
Detection: 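TNF promoter reporter red fluorescence in nuclei, background subtracted, normalised per plate and to non-targeting control siRNA, as z-scores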
Direction: TNF reporter z-score, mean: higher = stronger Tnf promoter reporter signal
Active means: 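An siRNA is called active when its mean z-score over replicates is at least +2 or at most -2; control wells get no call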
Here is an unselected part of about 3,800 deposited reagents. About 2,200 of all reagents (57%) were called active. 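Active means a strong reporter change in either direction; calls are per siRNA, not per gene; qiagen siRNAs gave weaker effects.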 Reagents against one gene are numbered here. Further read-outs or replicates are left out here.

Rpl37a #1 showed TNF reporter z-score, mean -1.37; inactive. With knock-down of Rpl37a #2, the record shows TNF reporter z-score, mean -5.15; active. Silencing of Rpl37a #3 came out at: TNF reporter z-score, mean -5.66; active. For Rpl37a #4 the deposit lists TNF reporter z-score, mean -1.41; inactive. Knock-down of Rpl37a #5 resulted in: TNF reporter z-score, mean -2.04; active. Rpl37a #6 showed TNF reporter z-score, mean -3.14; active.

Slc25a14 #1 scored TNF reporter z-score, mean -2.85; active. For Slc25a14 #2 the deposit lists TNF reporter z-score, mean -3.72; active. Depletion of Slc25a14 #3 came out at: TNF reporter z-score, mean -4.21; active. Against Slc25a14 #4, the values are TNF reporter z-score, mean 3.14; active. Slc25a14 #5 scored TNF reporter z-score, mean 1.81; inactive. Against Slc25a14 #6, the entry reads TNF reporter z-score, mean -1.11; inactive.

For Or52e15 #1, the entry reads TNF reporter z-score, mean -2.7; active. For Or52e15 #2, the values are TNF reporter z-score, mean -4.23; active. For Or52e15 #3 the deposit lists TNF reporter z-score, mean -4.68; active. After knock-down of Or52e15 #4 the results were TNF reporter z-score, mean 2.86; active. Knock-down of Or52e15 #5 gave: TNF reporter z-score, mean 1.94; inactive. Or52e15 #6 scored TNF reporter z-score, mean -0.528; inactive.

Silencing of Hivep2 #1 resulted in: TNF reporter z-score, mean 1.11; inactive. After knock-down of Hivep2 #2, the record shows TNF reporter z-score, mean -1.18; inactive. Hivep2 #3 scored TNF reporter z-score, mean -3.77; active. After knock-down of Hivep2 #4 the results were TNF reporter z-score, mean 3.2; active. Against Hivep2 #5 the deposit lists TNF reporter z-score, mean -1.45; inactive. Silencing of Hivep2 #6 came out at: TNF reporter z-score, mean -3.52; active.

Depletion of Il17rd #1 resulted in: TNF reporter z-score, mean -1.66; inactive. Il17rd #2 showed TNF reporter z-score, mean -1.84; inactive. Against Il17rd #3, the values are TNF reporter z-score, mean -5.99; active. Silencing of Il17rd #4 came out at: TNF reporter z-score, mean 0.936; inactive. Knock-down of Il17rd #5 resulted in: TNF reporter z-score, mean -1.21; inactive. After knock-down of Il17rd #6 the results were TNF reporter z-score, mean -3.23; active.

For Tcf20 #1, the entry reads TNF reporter z-score, mean 0.151; inactive. For Tcf20 #2, the entry reads TNF reporter z-score, mean -3.38; active. Against Tcf20 #3, the values are TNF reporter z-score, mean -4.3; active. Against Tcf20 #4, the values are TNF reporter z-score, mean 1.85; inactive. With knock-down of Tcf20 #5 the results were TNF reporter z-score, mean 0.968; inactive. Silencing of Tcf20 #6 came out at: TNF reporter z-score, mean -0.323; inactive.

Silencing of Rps29 #1 gave: TNF reporter z-score, mean -1.89; inactive. Depletion of Rps29 #2 came out at: TNF reporter z-score, mean -3.25; active. Knock-down of Rps29 #3 came out at: TNF reporter z-score, mean -4.99; active. Rps29 #4 showed TNF reporter z-score, mean -0.727; inactive. Rps29 #5 gave TNF reporter z-score, mean -2.9; active. Rps29 #6 scored TNF reporter z-score, mean -3.03; active.

Records listed so far whose gene name starts with T or t:
Tcf20 #1: TNF reporter z-score, mean = 0.151; Call = inactive
Tcf20 #2: TNF reporter z-score, mean = -3.38; Call = active
Tcf20 #3: TNF reporter z-score, mean = -4.3; Call = active
Tcf20 #4: TNF reporter z-score, mean = 1.85; Call = inactive
Tcf20 #5: TNF reporter z-score, mean = 0.968; Call = inactive
Tcf20 #6: TNF reporter z-score, mean = -0.323; Call = inactive
